The values below come from patent US20240201167A1 (ALBERT EINSTEIN COLLEGE OF MEDICINE, published 2024).

Where a chain is given by its changes, count along the chain named. Numbers in names are those of the source. No constants are given. Whether binding was seen depends on the method and setting. Some results given as binding are weak or reduced against the parent protein; the word gives no strength.

Experiment [1] has as its target human p75 neurotrophin receptor, full length, expressed on HEK 293 cells (Homo sapiens) (UniProt P08138). The experiment in a line: Fc fusion titrated on transfected cells, flow cytometry.
The target is the same in experiment [2]. The experiment in a line: cell-cell screen, flow cytometry. A general note: Flow cytometry measures light scatter and fluorescence of single cells or particles in a stream.
The target is the same in experiment [3]. The experiment in a line: cell-cell binding, flow cytometry.
The target of experiment [4] is T1, mouse p75NTR (mouse, UniProt Q9Z0W1 32-427).
T1 construct: whole, on cells; also called mouse p75NTR-GFP; murine p75
T1 sequence (looked up): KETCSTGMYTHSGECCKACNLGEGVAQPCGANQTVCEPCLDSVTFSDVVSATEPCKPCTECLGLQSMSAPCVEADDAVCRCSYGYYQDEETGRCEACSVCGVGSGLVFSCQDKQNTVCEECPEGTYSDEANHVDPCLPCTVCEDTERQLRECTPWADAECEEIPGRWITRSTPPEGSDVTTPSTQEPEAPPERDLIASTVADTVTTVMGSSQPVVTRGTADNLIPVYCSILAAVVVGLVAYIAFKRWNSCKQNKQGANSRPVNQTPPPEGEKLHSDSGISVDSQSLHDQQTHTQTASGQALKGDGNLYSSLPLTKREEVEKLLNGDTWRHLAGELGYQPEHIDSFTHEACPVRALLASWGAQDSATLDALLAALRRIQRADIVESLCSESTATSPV
The experiment in a line: cell-cell binding, flow cytometry.

In experiment [5] the target is T2, rat p75NTR expressed on cells (rat, UniProt P07174 30-425).
T2 construct: whole, on cells; also called rat p75NTR-GFP; rodent p75NTR
T2 sequence (looked up): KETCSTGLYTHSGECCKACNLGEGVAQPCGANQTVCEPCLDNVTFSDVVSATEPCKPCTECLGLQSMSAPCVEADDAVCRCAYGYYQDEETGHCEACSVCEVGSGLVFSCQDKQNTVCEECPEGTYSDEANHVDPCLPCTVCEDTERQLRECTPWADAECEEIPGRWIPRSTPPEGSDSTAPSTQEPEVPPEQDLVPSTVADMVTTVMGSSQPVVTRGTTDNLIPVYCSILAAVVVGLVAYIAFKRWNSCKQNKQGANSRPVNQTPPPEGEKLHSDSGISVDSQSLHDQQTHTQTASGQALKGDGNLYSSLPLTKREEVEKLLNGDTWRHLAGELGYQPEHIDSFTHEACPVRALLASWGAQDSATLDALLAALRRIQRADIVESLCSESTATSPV
Briefly: cell-cell binding, flow cytometry.

Experiment [6] deals with T1, mouse p75NTR. The experiment in a line: summary of the cell-cell binding results.
The target in experiment [7] is human p75 neurotrophin receptor, full length, expressed on HEK 293 cells (Homo sapiens) (UniProt P08138). The experiment in a line: summary of the cell-cell binding results.
Experiment [8] deals with human B7-1 (CD80), full length, expressed on HEK 293 cells (Homo sapiens) (UniProt P33681). The experiment in a line: cell-cell screen, flow cytometry.
For another experiment, the target named is T3, human B7-1 N82E on cells (Homo sapiens, UniProt P33681 35-280).
T3 construct: C-terminally fused to mCherry; also called ASN82 GLU
T3 chain: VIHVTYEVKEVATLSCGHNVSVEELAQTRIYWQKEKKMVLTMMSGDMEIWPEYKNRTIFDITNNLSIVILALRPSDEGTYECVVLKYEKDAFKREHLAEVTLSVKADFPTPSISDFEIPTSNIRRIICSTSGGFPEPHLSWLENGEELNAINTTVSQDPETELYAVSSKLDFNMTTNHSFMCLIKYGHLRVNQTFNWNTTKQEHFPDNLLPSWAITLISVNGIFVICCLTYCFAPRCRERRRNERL
The experiment in a line: cell-cell binding, flow cytometry.

A further experiment has as its target T4, B7-1-hIgG1-biotin (human, UniProt P33681 35-233, biotin on the AVI tag (BirA)).
T4 construct: Loaded on streptavidin beads; the paragraph gives residues only; also called B7-1-Fc-biotin; hB7-1 (residues 35-233) hIgG1-His10-AVI; not shown: C-terminal 10xHis and AVI tagged hIgG1 Fc domain
T4 chain: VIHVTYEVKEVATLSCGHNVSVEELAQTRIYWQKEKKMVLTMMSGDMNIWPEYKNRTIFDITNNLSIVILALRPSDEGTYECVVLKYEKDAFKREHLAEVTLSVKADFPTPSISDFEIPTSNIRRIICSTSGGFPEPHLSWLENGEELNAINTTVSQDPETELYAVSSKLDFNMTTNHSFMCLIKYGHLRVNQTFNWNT
The experiment in a line: Fc fusion titrated on streptavidin beads coated with B7-1-hIgG1-biotin, flow cytometry.

For “B7-1-Fc (recombinant human B7-1 ectodomain Fc fusion, made in house) (from UniProt P33681 35-233)”, in experiment [1], the binding result is given as “binds”.

B1: human B7-1 (CD80), full length, expressed on HEK 293 cells (ligand)
chain: T3 chain with E48N
notes: also called hB7-1; B7-1-mCherry
In the case of B1, the binding result (in experiment [2]; in [3]; with mouse p75NTR [4]; in experiment [5]; in the experiment with mouse p75NTR [6]; in experiment [7]) was “binds” each time.

B2: human p75 neurotrophin receptor, full length, expressed on HEK 293 cells (receptor)
chain: KEACPTGLYTHSGECCKACNLGEGVAQPCGANQTVCEPCLDSVTFSDVVSATEPCKPCTECVGLQSMSAPCVEADDAVCRCAYGYYQDETTGRCEACRVCEAGSGLVFSCQDKQNTVCEECPDGTYSDEANHVDPCLPCTVCEDTERQLRECTRWADAECEEIPGRWITRSTPPEGSDSTAPSTQEPEAPPEQDLIASTVAGVVTTVMGSSQPVVTRGTTDNLIPVYCSILAAVVVGLVAYIAFKRWNSCKQNKQGANSRPVNQTPPPEGEKLHSDSGISVDSQSLHDQQPHTQTASGQALKGDGGLYSSLPPAKREEVEKLLNGSAGDTWRHLAGELGYQPEHIDSFTHEACPVRALLASWATQDSATLDALLAALRRIQRADLVESLCSESTATSPV
notes: Full-length human p75 with a cytosolic fluorescent tag (GFP); also called p75NTR; NGFR
For the molecule B2, in [8], the binding result is on record as “binds”.

B3: human p75NTR F136K on cells (receptor)
chain: B2 chain with F108K
notes: Fluorescent-tagged point mutant
Turning to B3, the binding result with human B7-1 N82E on cells is “binds”.

B4: human p75NTR F136H on cells (receptor)
chain: B2 chain with F108H
notes: as for B3
As for B4, the binding result in the experiment with human B7-1 N82E on cells is “binds”.

B5: p75NTR-mIgG2a (Fc fusion)
chain: KEACPTGLYTHSGECCKACNLGEGVAQPCGANQTVCEPCLDSVTFSDVVSATEPCKPCTECVGLQSMSAPCVEADDAVCRCAYGYYQDETTGRCEACRVCEAGSGLVFSCQDKQNTVCEECPDGTYSDEANHVDPCLPCTVCEDTERQLRECTRWADAECEEIPGRWITRSTPPEGSDSTAPSTQEPEAPPEQDLIASTVAGVVTTVMGSSQPVVTRGTTDN
notes: Full-length ectodomain; also called p75-mIgG2A; recombinant p75 mIgG2a; not shown: C-terminal mIgG2a-His10 Fc domain
Take B5: the binding entry in the experiment with B7-1-hIgG1-biotin was “binds”.
